Some of the results follow. The main result of the screen is listed elsewhere. These columns were measured beside it and carry no call. The list favours compounds with an active or inconclusive main result. The note in brackets gives the kind of curve behind each potency; many fits are weak.
Experiment: qHTS Assay for Lipid Storage Modulators in Drosophila S3 Cells;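 for cell number change: cells counted by Cell Tracker Red CMTPX staining in the red channel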
Settings: BODIPY lipid droplet fluorescence, 18-24 h; for cell number change: measured here: cell count max response, cells fed with added oleic acid
Summary of the method: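 Drosophila S3 cells loaded with oleic acid (400 uM, as added) and compounds at several concentrations; lipid droplets imaged by 488-nm laser-scanning cytometry, 500–530 nm intensity and object ratio to cell channel. Percent activity normalized to 20 uM Triacsin C.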

[1] = measured here: lipid fluorescence (Fed channel) AC50, cells fed with added oleic acid
[2] = measured here: cell number channel AC50, cells fed with added oleic acid

In the case of `CCCCOc1ccc(C(=O)Nc2ccc(C)cc2[N+](=O)[O-])cc1`, the cell number change is reported as 20.5% and the AC50 [1] is reported as 3.66 µM [rising, full curve].

In the case of `COc1ccccc1CNC(=O)CSc1nnc2c(n1)[nH]c1ccc(F)cc12`, the cell number change is reported as 0.435% and the AC50 [1] is reported as 0.58 µM [falling, single point].

In the case of `Nc1ccc(C23CC4CC(CC(CO)(C4)C2)C3)cc1`, the cell number change is reported as 4.82% and the AC50 [1] is reported as 6.51 µM [falling, single point].

For `O=C(NC1CCCCCC1)C1CCN(S(=O)(=O)c2cnc[nH]2)CC1`, the cell number change was 0.86% and the AC50 [1] was 0.58 µM [rising, single point].

With `Cc1ccc(CNC(=O)COC(=O)C2CCN(S(=O)(=O)c3cccs3)CC2)cc1` the cell number change was 77.1%, the AC50 [2] was 13 µM [rising, single point] and the AC50 [1] was 23.1 µM [rising, single point].

For `O=C(OCc1nnc(-c2ccccc2)o1)C1CCN(S(=O)(=O)c2cccs2)CC1`, the cell number change was -14% and the AC50 [1] was 29.1 µM [rising, single point].

In the case of `Cc1nc(N)sc1C(=O)N/N=C/c1c[nH]c2ccccc12`, the AC50 [2] is reported as 6.51 µM [rising, single point].

For `Cc1ccc(NC(=O)CN(C)C(=O)Cn2ncc(Cl)c(Cl)c2=O)cc1`, the cell number change was -30.4%, the AC50 [2] was 1.16 µM [falling, full curve, poor fit] and the AC50 [1] was 5.17 µM [falling, partial curve].

Work on `COc1cc(/C=N\NC(=O)c2cccc(Cl)c2)ccc1Oc1ccc([N+](=O)[O-])cn1` yielded a cell number change of -8.65%.

With `c1cn2c(NC3CCCC3)c(-c3ccc(N4CCOCC4)cc3)nc2cn1` the AC50 [1] was 0.00517 µM [falling, full curve, poor fit].

In the case of `Cc1cc(C)c(NC(=O)CN(C)C(=O)c2ccc(OCc3ccccc3)cc2)c(C)c1`, the cell number change is reported as 3.99% and the AC50 [1] is reported as 3.66 µM [falling, single point].

With `Cc1ccc(F)cc1NC(=O)CN1CCN(c2ccccn2)CC1` the cell number change was 60.5%, the AC50 [2] was 0.206 µM [rising, full curve] and the AC50 [1] was 0.231 µM [rising, full curve, poor fit].

Work on `Cc1oc(=O)c(NC(=O)c2ccccc2)cc1C(N)=O` yielded a cell number change of -19.4%.

With `COC(=O)c1ccc(C2C(C(=O)c3cc4ccccc4o3)=C(O)C(=O)N2c2cc(C)on2)cc1` (stereo not given) the cell number change was -4.72% and the AC50 [1] was 18.4 µM [rising, partial curve].

With `CCN(CC)S(=O)(=O)c1cccc(C(=O)OCC(=O)c2ccc3c(c2)OCCO3)c1` the AC50 [2] was 3.26 µM [falling, partial curve] and the AC50 [1] was 29.1 µM [rising, partial curve, poor fit].

With `O=c1oc2c3c4c(cc2c(C(F)(F)F)c1CCN1CCOCC1)CCCN4CCC3` the AC50 [1] was 5.8 µM [rising, single point].

Reference: PubChem BioAssay AID2685 (National Center for Advancing Translational Sciences (NCATS), 2010)
